Test results as given in patent US20080139574A1, “Novel quinoline derivatives” (CADILA HEALTHCARE LIMITED, priority 2006, published 2008).

Test: in vivo
Details: male, Sprague-Dawley, rat, plasma, po, 30 mg/kg

AUC: 4650 ± 160 ng·h/mL
Cmax: 1490 ± 220 ng/mL
Tmax: 26.4 ± 12 min
Compound: O=C(O)c1cn(C2CC2)c2cc(N3CCNCC3)c(F)cc2c1=O [Ciprofloxacin, reference compound]
